The values that follow come from the supplement of paper PMC9744312.

The structures appear in SMILES notation. Structures can show the parent of a compound that is named as a salt. This is one part of the list. This is a noisy data set.

In this assay the test system is Peyronie's disease tunica albuginea primary fibroblasts. The assay is described as follows: cell viability (DRAQ5 nuclear stain) relative to TGF-beta1-only control; higher = more viable cells. The settings on record: 10 µM; TGF-beta1 10 ng/mL; 72 h.
As to `Cc1ccccc1-c1cc(N2CCN(C)CC2)ncc1N(C)C(=O)C(C)(C)c1cc(C(F)(F)F)cc(C(F)(F)F)c1` [Netupitant], the cell viability was determined as 94.1%.

Consider `Cc1c(C)c2c(c(C)c1O)CCC(C)(COc1ccc(CC3SC(=O)NC3=O)cc1)O2` (configuration not stated) [Troglitazone (CS-045)], for which the cell viability stood at 89.8%.

`COC(=O)C1=C(C)NC(C)=C(C(=O)OCCN2CCN(C(c3ccccc3)c3ccccc3)CC2)C1c1cccc([N+](=O)[O-])c1` (configuration not stated) [Manidipine 2HCl]: the cell viability amounted to 85.9%.

Take `COC(=O)C1=C(C)NC(C)=C(C(=O)OCCN2CCN(C(c3ccccc3)c3ccccc3)CC2)C1c1cccc([N+](=O)[O-])c1` (configuration not stated) [Manidipine]: the cell viability worked out at 87.3%.

As for `COC(c1ccccc1)(c1ccccc1)[C@H](Oc1nc(C)cc(C)n1)C(=O)O` [Ambrisentan], the cell viability came out at 93.8%.

For the compound `CC(C)(C(=O)O)c1ccc(C(O)CCCN2CCC(C(O)(c3ccccc3)c3ccccc3)CC2)cc1` (configuration not stated) [Fexofenadine HCl], the cell viability was 97.8%.

Regarding `CN(C)CCCN1c2ccccc2Sc2ccccc21` [Promazine hydrochloride], the cell viability amounted to 84.9%.

Consider `CC(=O)O[C@]1(C(C)=O)CC[C@H]2[C@@H]3C[C@H](C)C4=CC(=O)C=C[C@]4(C)[C@@]3(F)[C@@H](O)C[C@@]21C` [Fluorometholone Acetate], for which the cell viability was 66.7%.

Regarding `O=C[C@H](O)[C@@H](O)[C@H](O)CO` [Xylose], the cell viability is 87.7%.

Turning to `OC(c1ccccc1)(c1ccccc1)C12CC[N+](CCOCc3ccccc3)(CC1)CC2` [Umeclidinium bromide], the cell viability was found to be 98.4%.

On to `Cc1ncc(CO)c(CO)c1O` [Pyridoxine], for which the cell viability was found to be 91.6%.

On to `Cc1ncc(CO)c(CO)c1O` [Pyridoxine HCl], for which the cell viability came to 81.7%.

As for `C#Cc1cccc(Nc2ncnc3cc4c(cc23)OCCOCCOCCO4)c1` [Icotinib], the cell viability came out at 83.3%.

For the compound `C=CC(=O)Nc1cc(Nc2nccc(-c3cn(C)c4ccccc34)n2)c(OC)cc1N(C)CCN(C)C` [Osimertinib (AZD9291)], the cell viability came out at 61.9%.

Turning to `CCc1c(C)[nH]c2c1C(=O)C(CN1CCOCC1)CC2` (configuration not stated) [Molindone hydrochloride], the cell viability came to 93.4%.

For `N[C@@H](CCC(=O)N[C@@H](CS)C(=O)NCC(=O)O)C(=O)O` [Glutathione], the cell viability was determined as 90.8%.

Regarding `CC1=C(C(=O)O)N2C(=O)[C@@H](NC(=O)[C@H](N)C3=CCC=CC3)[C@H]2SC1` [Cephradine monohydrate], the cell viability was found to be 81%.

Consider `CC1=C(C(=O)O)N2C(=O)[C@@H](NC(=O)[C@H](N)C3=CCC=CC3)[C@H]2SC1` [Cefradine], for which the cell viability worked out at 88.1%.

For the compound `CC1=C(/C=C/C(C)=C/C=C/C(C)=C/C(=O)O)C(C)(C)CCC1` [Tretinoin], the cell viability worked out at 78.8%.

Consider `C[C@]12CC[C@H](O)CC1=CC[C@@H]1[C@@H]2CC[C@]2(C)C(n3cnc4ccccc43)=CC[C@@H]12` [Galeterone], for which the cell viability was 99.6%.

As for `CNC(=O)CN(CCN(CCN(CC(=O)[O-])CC(=O)NC)CC(=O)[O-])CC(=O)[O-].O.[Gd+3]` [Gadodiamide Hydrate], the cell viability came to 100%.

Regarding `CNS(=O)(=O)CCc1ccc2[nH]cc(C3CCN(C)CC3)c2c1` [Naratriptan HCl], the cell viability is 88%.

For the compound `CC(=O)Oc1ccccc1C(=O)O` [Aspirin], the cell viability came to 90%.

For the compound `N=C(N)NS(=O)(=O)c1ccc(N)cc1` [Sulfaguanidine], the cell viability was 96.8%.

Consider `O=C(Nc1nc2cccc(-c3ccc(CN4CCS(=O)(=O)CC4)cc3)n2n1)C1CC1` [Filgotinib (GLPG0634)], for which the cell viability was determined as 99.3%.

In the case of `CCCCc1nc2cc(/C=C/C(=O)NO)ccc2n1CCN(CC)CC` [Pracinostat (SB939)], the cell viability was determined as 40%.

As for `COc1cc2nc(N(C)CCCNC(=O)C3CCCO3)nc(N)c2cc1OC` (configuration not stated) [Alfuzosin HCl], the cell viability worked out at 101%.

As to `CCCCCOc1ccc(-c2cc(-c3ccc(C(=O)N[C@H]4C[C@@H](O)[C@@H](O)NC(=O)[C@@H]5[C@@H](O)[C@@H](C)CN5C(=O)[C@H]([C@H](O)CC(N)=O)NC(=O)[C@H]([C@H](O)[C@@H](O)c5ccc(O)c(OS(=O)(=O)O)c5)NC(=O)[C@@H]5C[C@@H](O)CN5C(=O)[C@H]([C@@H](C)O)NC4=O)cc3)no2)cc1` [Micafungin Sodium], the cell viability is 93.3%.

As for `CC#CC(=O)N1CCC[C@H]1c1nc(-c2ccc(C(=O)Nc3ccccn3)cc2)c2c(N)nccn12` [Acalabrutinib (ACP-196)], the cell viability came to 93.8%.

`N[C@@H](Cc1c[nH]c2ccc(O)cc12)C(=O)O` [5-hydroxytryptophan (5-HTP)]: the cell viability is 97.9%.

For `CN1C[C@@H]2C[C@H]1CN2c1cc2c(cc1F)c(=O)c(C(=O)O)cn2C1CC1` [Danofloxacin Mesylate], the cell viability came out at 84.2%.

In the case of `N=C(N)Nc1ccc(C(=O)Oc2ccc3cc(C(=N)N)ccc3c2)cc1` [Nafamostat Mesylate], the cell viability is 96.6%.

For `NC(=O)c1nc(F)cnc1O` [Favipiravir (T-705)], the cell viability came to 88.6%.

With `CCCSc1nc(N[C@@H]2C[C@H]2c2ccc(F)c(F)c2)c2nnn([C@@H]3C[C@H](OCCO)[C@@H](O)[C@H]3O)c2n1` [Ticagrelor], the cell viability stood at 103%.

In the case of `N[C@@H]1CONC1=O` [D-Cycloserine], the cell viability amounted to 82.5%.

On to `O=C(O)COCCN1CCN(C(c2ccccc2)c2ccc(Cl)cc2)CC1` (configuration not stated) [Cetirizine DiHCl], for which the cell viability came to 96.4%.

For the compound `CC(=O)Oc1ccc(C(=C2CCCCC2)c2ccc(OC(C)=O)cc2)cc1` [Cyclofenil], the cell viability is 85.9%.

For the compound `CC(=O)O[C@]1(C(C)=O)CC[C@H]2[C@@H]3C=C(Cl)C4=CC(=O)[C@@H]5C[C@@H]5[C@]4(C)[C@H]3CC[C@@]21C` [Cyproterone Acetate], the cell viability amounted to 96.4%.

Consider `CC(C)c1cc(-c2n[nH]c(=O)n2-c2ccc3c(ccn3C)c2)c(O)cc1O` [Ganetespib (STA-9090)], for which the cell viability amounted to 46.6%.

Turning to `Nc1ncnc2c1ncn2[C@@H]1O[C@H](CO)[C@@H](O)[C@H]1O` [Adenosine], the cell viability worked out at 101%.

For the compound `Clc1ccc(CSC(Cn2ccnc2)c2ccc(Cl)cc2Cl)cc1` (configuration not stated) [Sulconazole Nitrate], the cell viability was determined as 69.9%.

With `CO[C@H]1C[C@@H]2CC[C@@H](C)[C@@](O)(O2)C(=O)C(=O)N2CCCC[C@H]2C(=O)O[C@H]([C@H](C)C[C@@H]2CC[C@@H](OCCO)[C@H](OC)C2)CC(=O)[C@H](C)/C=C(\C)[C@@H](O)[C@@H](OC)C(=O)[C@H](C)C[C@H](C)/C=C/C=C/C=C/1C` [Everolimus (RAD001)], the cell viability stood at 65.4%.
